Laboratory results taken from the supplement of paper PMC12889115.
The list shows a part of the results. Values are raw readings; no control value is given beside them.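 In the initial screen, polymyxin B was used at a concentration that permeabilizes Salmonella's outer membrane but not its inner membrane. Maximum growth was set by DMSO wells with or without polymyxin B. Since plates varied, data were ranked per plate, and compounds giving the lowest OD600 advanced as hits.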

Tested on: Salmonella enterica serovar Typhimurium SL1344
Test: bacterial growth OD600 after 18 h with compound and polymyxin B; higher = more bacterial growth (less inhibition)
Settings: 50 µM, Mueller-Hinton broth

| SMILES | bacterial growth OD600 (polymyxin B 0.75 µg/mL) | bacterial growth OD600 (polymyxin B 1 µg/mL) |
| --- | --- | --- |
| CCOc1ccc2nc(N3CCCC3C(=O)NCC3(N4CCOCC4)CCCC3)nc(C)c2c1 (stereo not given) | 0.778 |  |
| O=C(Cc1ccccc1)Nc1ccnn1C1CCN(C2CCSCC2)CC1 |  | 1.06 |
| CCOc1ccc(CN2CCN(Cc3c(OC)cccc3OC)CC2CCO)cc1 (stereo not given) |  | 0.887 |
| O=C(c1ccoc1)N1CCC(C2CCN(Cc3cccc(F)c3F)CC2)C1 (stereo not given) | 0.837 |  |
| O=C(CCC1CCN(C(=O)c2cccc3ccccc23)CC1)NC1CC1 |  | 0.941 |
| CCOC(=O)C1(Cc2ccccc2C)CCCN(C(=O)c2cc(CC)nn2C)C1 (stereo not given) |  | 0.595 |
| CCN1CCN(C2(C(=O)N(C)Cc3ccncc3C)Cc3ccccc3C2)CC1 | 0.683 |  |
| COc1cccc(OC)c1CN1CCC2(CC1)c1ccccc1[C@@H](NC(=O)c1ccsc1)[C@@H]2OC | 0.889 |  |
| Cc1cccc(C(=O)NC2CC(=O)N(CCCc3ccccc3)C2)n1 (stereo not given) |  | 0.911 |
| COc1ccc(C(=O)NC2CC2)c(OC2CCN(Cc3ccccc3)CC2)c1 |  | 1.17 |
| Cc1ccc(CN2CCCC(N3CCN(Cc4ccc5c(c4)OCO5)CC3)C2)s1 (stereo not given) |  | 0.912 |
| COc1cccc(CC(C2CCN(C(=O)/C=C/C(C)C)CC2)N(C)C(=O)CC(C)C)c1 (stereo not given) | 0.635 |  |
| O=C(/C=C/c1ccco1)N1CCC2(CCCN(CCc3ccccc3)C2)C1 (stereo not given) | 0.005 |  |
| COc1cccc(OCc2nc(C(=O)NCC(F)(F)F)co2)c1 |  | 0.929 |
| CSc1ccc(CC2(CCC(=O)N(C)CCc3cnn(C)c3)CCC(=O)N2)cc1 (stereo not given) | 0.92 |  |
| CC1CN(CCC(=O)NCc2cc(-c3ccccc3)[nH]n2)Cc2cc(Cl)ccc2O1 (stereo not given) | 1.05 |  |
| Cc1cc(C)n(-c2ccc(C(=O)N3CCCC(CCC(=O)NC4CC4)C3)cc2)n1 (stereo not given) |  | 0.717 |
| CC(C)N(Cc1cnn(C)c1)C(=O)c1ccc(OC2CCN(C(=O)C3CC3)CC2)cc1 |  | 0.824 |
| CN(Cc1nc2ccccc2[nH]1)C(=O)C1CCC(=O)N(CCc2cccc(F)c2)C1 (stereo not given) |  | 0.898 |
| CC(=O)N1CCCN(C(=O)CC(c2cccc(Cl)c2)c2ccccc2O)CC1 (stereo not given) |  | 0.923 |
| COc1ccccc1CNC(=O)c1c(OC)cc(=O)n2c1CCN(Cc1cccc(F)c1F)CC2 | 0.82 |  |
| CN(Cc1ccon1)CC1(O)CCCN(CC(C)(C)C)C1=O (stereo not given) |  | 1.01 |
| COC(=O)CCC(=O)N1CCCC(C(=O)Nc2cccc(-c3ccc(F)cc3)c2)C1 (stereo not given) |  | 0.719 |
| COc1ccc(Cl)cc1S(=O)(=O)N1CCOc2c(cc(-c3cnc4ccccc4c3)cc2OC)C1 | 0.779 |  |
| Cc1cc(C)n(CC(=O)NC2CCCc3nc(N(C)C)ncc32)n1 (stereo not given) | 0.858 |  |
| CCN1CCN(C(=O)c2ccc(N3CCC(NC(C)Cn4ccc5ccccc54)CC3)cc2)CC1 (stereo not given) | 0.965 |  |
| CC(=O)NC1CC(=O)N(Cc2cccc3ccccc23)C1 (stereo not given) |  | 0.942 |
| C=CCC(=O)NCc1cccnc1Oc1ccccc1OC | 0.849 |  |
| COC(=O)c1cc(CNC(=O)CCc2ccc3c(c2)OCO3)cc(NC(=O)c2ccccc2OC)c1 | 0.813 |  |
| C=CCN1CC(C(=O)NCc2ccc3[nH]c(C)c(C)c3c2)CC1=O (stereo not given) |  | 0.898 |

Reformatted: entries from further up.
SMILES | bacterial growth OD600 (polymyxin B 0.75 µg/mL) | bacterial growth OD600 (polymyxin B 1 µg/mL)
CCN1CCN(C2(C(=O)N(C)Cc3ccncc3C)Cc3ccccc3C2)CC1 | 0.683 | 
COc1cccc(OC)c1CN1CCC2(CC1)c1ccccc1[C@@H](NC(=O)c1ccsc1)[C@@H]2OC | 0.889 | 
